We go through 42 sequences from article PMC7819943, “Rice protein-binding microarrays: a tool to detect cis-acting elements near promoter regions in rice”.

Protein sequences, listed by entry. Tags and fused reporters are not part of them.
UniProt Q0JBA9, entry or part of it: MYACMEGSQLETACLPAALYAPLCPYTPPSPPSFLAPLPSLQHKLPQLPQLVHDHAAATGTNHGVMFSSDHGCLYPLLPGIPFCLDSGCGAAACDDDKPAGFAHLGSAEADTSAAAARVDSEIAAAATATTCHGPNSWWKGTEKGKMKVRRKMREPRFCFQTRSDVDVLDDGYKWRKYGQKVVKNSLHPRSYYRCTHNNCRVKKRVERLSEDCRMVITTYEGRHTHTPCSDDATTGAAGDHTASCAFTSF

The list shows a part of the results.

The target of this experiment is OsWRKY34 (Oryza sativa, UniProt Q0JBA9 1-250). As to the kind of experiment: protein-binding microarray (RPBM); PBS, 2% BSA, 51.3 ng/ul salmon testes DNA, 50 uM zinc acetate, 200 nM TF, 25 C, 1 h; high values mean tight binding. To be noted: protein: recombinant; tags: N-terminal polyhistidine and DsRed monomer fusion (pET32a); label: CyDye5-dUTP incorporated in the synthesized complementary strand; 3' TTTTT single-stranded linker to array surface; dsDNA, one strand shown. The procedure, abridged: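 A custom Agilent array was converted to double-stranded form by primer extension with Cy5-dUTP and blocked with 2% BSA. Protein at 200 nM in PBS with 2% BSA, salmon testes DNA and 50 µM zinc acetate was applied for 1 h at 25 °C, followed by washing. The proteins were polyhistidine–DsRed N-terminal fusions of transcription factors, expressed in E. coli BL21-CodonPlus and Ni–NTA-purified. The binding signal is per-feature fluorescence intensity (arbitrary units) from an Axon 4000B scanner.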
As for “ACTCATGGATGCAGGTCCACCTACATACGTACTACCACAACGGAGTCACCTAGTGCAG”, the binding signal is 8570 fluorescence intensity (a.u.).
“AATCTTTCGCTGCGTTCTTGCGCGCGTGTGTGAGCAGGGGCGGAGTCACCTAGTGCAG”: the binding signal is 8210 fluorescence intensity (a.u.).
Consider “ATCATATCTCTTATAATTGGTTTTTCTCCTATATATAGTACGGAGTCACCTAGTGCAG”, for which the binding signal is 9790 fluorescence intensity (a.u.).
With “ATAAAACGAATGGTCAAACGTTAGTCGAAAAGTCAACGGTCGGAGTCACCTAGTGCAG” the figure was 14000 fluorescence intensity (a.u.); with “AGCTCTGTTTCTAGCATGTTGGTTTTGCTTCTTGCATTCACGGAGTCACCTAGTGCAG”, 12600 fluorescence intensity (a.u.); with “ACTTTTTAATGCTTACTTCATTCATTTGTACTCTCAAATACGGAGTCACCTAGTGCAG”, 9390 fluorescence intensity (a.u.).
For “ATTGGTCGTCTTGCTGAGCTCTCGTACTTGGATCTCTCTACGGAGTCACCTAGTGCAG”, the binding signal is 11100 fluorescence intensity (a.u.).
As for “TGCGATCAGCTAGCAATTCACTGGCCATCATCGTCGATCACGGAGTCACCTAGTGCAG”, the binding signal is 8240 fluorescence intensity (a.u.).
Turning to “ACACCACGGAGGAGGCGGAGGAGGCAGCGTGGGGATGGGGCGGAGTCACCTAGTGCAG”, the binding signal was 9730 fluorescence intensity (a.u.).
With “TGCGTGGTTTGCAAGGGTCTATATTTTGTTGCACCCTTTTCGGAGTCACCTAGTGCAG” the figure was 10500 fluorescence intensity (a.u.).
Consider “TAACCTTTTTGTGAACTTTCTTTTATTTTTCCCATAGCATCGGAGTCACCTAGTGCAG”, for which the binding signal is 10700 fluorescence intensity (a.u.).
For “CGCTTTGGTTTCTCTCTCTCTTTGCAGCCGCCGCCGCCGCCGGAGTCACCTAGTGCAG” the value was 10800 fluorescence intensity (a.u.); for “TCTCCGTTTTCGATCCGACGTCCAACATCCACTTTCTCAACGGAGTCACCTAGTGCAG”, 11900 fluorescence intensity (a.u.); for “AGTATCACCTTTTTTTTAATATCTGCGTGTTTTTTCACATCGGAGTCACCTAGTGCAG”, 9810 fluorescence intensity (a.u.).
Regarding “CCTCGCCTCGCCACGCCACGCCACGCCGCCGAAATTTCATCGGAGTCACCTAGTGCAG”, the binding signal is 9110 fluorescence intensity (a.u.).
For “ATACTCTACAAATATCCTATTTGGTTACAGCCCATTGACGCGGAGTCACCTAGTGCAG”, the binding signal is 8400 fluorescence intensity (a.u.).
Regarding “ATTCCATGCATTTGACCTAGTTAGTTCTACACCTTACATCCGGAGTCACCTAGTGCAG”, the binding signal is 9220 fluorescence intensity (a.u.).
On to “ATCACCGTCACTTTTACTCTGTTAGATACCGTTAATTTTGCGGAGTCACCTAGTGCAG”, for which the binding signal was 8920 fluorescence intensity (a.u.).
Take “TGACTTTGACTTTGACTTCCATGCTGCGCTAAGCACTTGGCGGAGTCACCTAGTGCAG”: the binding signal is 9800 fluorescence intensity (a.u.).
For “TTTCATCGTTTAGTGTCTTACTCCCTTTCCGATGGTCAACCGGAGTCACCTAGTGCAG” the value was 9340 fluorescence intensity (a.u.); for “AGTGGCCCTGTCATTTTTCTGTACTTGTTTCTTGTAGAACCGGAGTCACCTAGTGCAG”, 9080 fluorescence intensity (a.u.).
Turning to “ATATACCGATCCAATCCAGCCTTATGTTTGTACTGTGTTTCGGAGTCACCTAGTGCAG”, the binding signal was 10500 fluorescence intensity (a.u.).
As for “TTGCTCTCTCTATTTTTTTTCTGGTCCAAGAAGCATTGTCCGGAGTCACCTAGTGCAG”, the binding signal was 9890 fluorescence intensity (a.u.).
Consider “CCTTGATCTGGTCTTCTTTTCTGTGATTTCCTTTTACTTTCGGAGTCACCTAGTGCAG”, for which the binding signal was 8260 fluorescence intensity (a.u.).
With “CCAGTATTGATCTCCACAATCTGCATGCTAATCAATCATCCGGAGTCACCTAGTGCAG” the figure was 9830 fluorescence intensity (a.u.); with “AAGTTTGACCTGAGTCAAAGCAGTGTGTACTTTTTTGGGGCGGAGTCACCTAGTGCAG”, 9410 fluorescence intensity (a.u.); with “CACACACCCCGTAAGTCCCCATCCGTCGACCAATCCCATCCGGAGTCACCTAGTGCAG”, 8260 fluorescence intensity (a.u.).
With “CGGGGCTTATCCCTTCCACCGCCGCTCTCCTCTTCGTCTCCGGAGTCACCTAGTGCAG” the figure was 8160 fluorescence intensity (a.u.); with “AGTCTGAGCCACCTTTCATTACCCATCCAAGATTCGGTTTCGGAGTCACCTAGTGCAG”, 8900 fluorescence intensity (a.u.).
With “TTCACGGCGACCTCCGCTTTAGCCTGCCCAATCCCAGTTCCGGAGTCACCTAGTGCAG” the figure was 9160 fluorescence intensity (a.u.); with “ACTCCCCTGCGCACCCATCGACGCATTTGCTCTCCGCTCTCGGAGTCACCTAGTGCAG”, 9370 fluorescence intensity (a.u.); with “GTGTCATTTTCAATGCTGCTACTGCTAGTACTACTCCTAGCGGAGTCACCTAGTGCAG”, 9800 fluorescence intensity (a.u.).
As for “CAAAGACGACGACGACTCATCCGCTTCTTCTTCTTGTTTCCGGAGTCACCTAGTGCAG”, the binding signal was 12000 fluorescence intensity (a.u.).
With “TGGTCAAATTAGAGTAGTTTGACTTTGACCAAAGTCCAAACGGAGTCACCTAGTGCAG” the figure was 12300 fluorescence intensity (a.u.); with “ATCGATCTAGCTCTTAATTAGCTCTGCATGAGTTTCGCGCCGGAGTCACCTAGTGCAG”, 8490 fluorescence intensity (a.u.); with “TTCTTCCCTCATCTCTTTGGGTTTTGTCTTATATGGCTGACGGAGTCACCTAGTGCAG”, 8740 fluorescence intensity (a.u.).
For “GAACACCAACGACACGGTTCACAGGCAACCAACTTTGACCCGGAGTCACCTAGTGCAG” the value was 9140 fluorescence intensity (a.u.); for “CCTGCGCCGGAGTCGCCGATGGCCACCTTCTCACGGCTTACGGAGTCACCTAGTGCAG”, 9180 fluorescence intensity (a.u.); for “GGTTTATTTGCTACGATCTGAACAGACCTTATTTTTTGGCCGGAGTCACCTAGTGCAG”, 8650 fluorescence intensity (a.u.).
As for “TGTCTTTATTTTCCAGCGTTTACCTAGTAGTGCTGTCAAACGGAGTCACCTAGTGCAG”, the binding signal was 8200 fluorescence intensity (a.u.).
Regarding “CAATGACCTTTTTTTTTCCTCTCTCTGTTGCTTCCGATATCGGAGTCACCTAGTGCAG”, the binding signal was 8500 fluorescence intensity (a.u.).
For the sequence “GTTCGTCATCAGATGGCGATGGGTTCAGTGATGGCGTTGACGGAGTCACCTAGTGCAG”, the binding signal was 8600 fluorescence intensity (a.u.).
